No constants are given. Whether binding was seen depends on the method and setting. Binding seen in cells or lysates may run through a third protein. These calls come from enrichment with a bait or labelling near it, and not all partners need be listed.
B1: Cap1 (protein, UniProt Q5A6P9 1-545)
chain: MSTEESQFNVQGYNIITILKRLEAATSRLEDITIFQEEANKNHYGVDSLTEKGTPKSRTVESSEATSDGKSLESTSFATFSEAPVEKSKLIVEFENFVESYVHPLVETSKKIDSLVGESAQYFYEAFVEQGKFLELVLQSQQPDMTDPALAKALEPMNAKCTKINELKDSNRKSPFFNHLSTFSESNAVFYWIGIPTPVSYITDTKDTVKFWSDRVLKEYKTKDQVHVEWVKQTLSVFDELKNYVKEYHTTGVAWNPKGKPFAEVVSQQTESAAKNSSSASGSAGGAAPPPPPPPPPATFFDDTEKDSENPSPASGGINAVFAELNQGANITSGLKKVDKSEMTHKNPELRKQPPVAPKKPAPPKKPSSLSGGVSSAPVKKPAKKELIDGTKWIIQNFTKADISDLSPITIEVEMHQSVFIGNCSDVTIQLKGKANAVSVSETKNVALVIDSLISGVDVIKSYKFGIQVLGLVPMLSIDKSDEGTIYLSQESIDNDSQVFTSSTTALNINAPKENDDYEELAVPEQFVSKVVNGKLVTQIVEHAG
B2: Rim20 (protein, UniProt Q9UW12 1-785)
chain: MNTNLLFIPLKQSSVLDLGDELRQVITNNYFQPASSFNSDLIYITQLRNQVAQIKNVNDELGKTSQDDSILLEYLQVLNTLQNKFSDDCVEFAWFDTLAYGPQGPYRYRSLKIEKLNVIYQIGSLYSQIAISESRHTDIGLKRACHYFQLSAGCFMFINNFLIETIKNKNDPLVLSIPLSMQSSTIQCLEYLMLAQAQETIWQKAINNNSMKDSVVARLSIQTSEYYSKALDFGNSSDLIKLEWINHMKVKKLHFLAAAHLRSSTIAADSFQYGEQVAHLRVASQAVDQALKSKKYVNSLVLEDLQGLADVIKVRLRTAEKDNDLVYLKIVPQEKELKTIIGVSMVKSIIPEAFEQKPESNTEIFKELLPYVIIHVAQAMRERQDEYVQTKFHTPISSLNNMLVKFLIDRDLPSSIDSIQQPENIPDSVIHHSQEILKTGGVDFIDKAFKELDKLKLECNHLLQECETRIDLDRSEDDMLRRKQGSTRWTRKSTDDAAQELIKKVDKMKQYLLQANNGDGFVLKKFYDIKPALDVYSSGYKALSQYIPNSQYIELPEQLSIVISDLRSCLARANTLESERKEFLQTLEIRSRDNSILPKLITEYNSNRSKYQTENGEFNFNAFESVYEKHMKLFDSDIKYIARTRDSQMTLEHEIDSINQKFVQEFKSLQNSSNEKRQQVLQYLETAYEKFLEIINNLTEGSKFYTDFIEKGSAVLQECEEYLYRRRVESRDLELAISNSFQQQQQVQEQNEQLSVPRNYSNDKLISPKTSKPGLWNPNSDIQFS
B3: Hem15 (protein, UniProt Q59U72 1-386)
chain: MMFRSTFKPTCIARRGFFRFNSSNSSKPPTGIVFMNMGGPSKVEETYDFLLRLFSDGDLIPFGRFQNILAKFIAKRRTPKIEEHYREIGGGSPIRKWSEYQCKKVCEILDKTSPETAPHKPYVAFRYANPLTEETLNDMKKDGVTKAVAFSQYPQFSYSTSGSSMNELYRQTLIHDPERTIDWSFIDRWPQQPGLVKAFANNIKEKLAEFPPQDRDDIVILFSAHSLPMEIVNLGDSYPAEVAATVYKIMEELKFSNPYRLVWQSQVGPKPWLGGQTSKIIDKLEKRDDIKGIVLVPVAFTSDHIETLHELDIEILEDATNPHKIKRAESLNGNETFIEGLADLVKSHLKSGEKYSKQLELDCILGSERAQGTFKHPNEIFGNRKN
B4: Snf1 (protein, UniProt P52497 1-620)
chain: MSEQAQPQASADQQQHQHNHHHHHHHHHHNENQSQQQVPIDPAANPANRIGRYQILKTLGEGSFGKVKLAQHLGTGQKVALKIINRKTLAKSDMQGRVEREISYLRLLRHPHIIKLYDVIKSKDEIIMVIEFAGKELFDYIVQRGKMPEDEARRFFQQIIAAVEYCHRHKIVHRDLKPENLLLDDQLNVKIADFGLSNIMTDGNFLKTSCGSPNYMPAPEVISGKLYAGPEVDVWSAGVILYVMLCGRLPFDDEFIPALFKKISNGVYTLPNYLSAGAKHLLTRMLVVNPLNRITIHEIMEDDWFKQDMPDYLLPPDLSKNKNSKIDVDEDVIRALSVTMGYDRDCKIVNVIEKANKQVAAGNSSSQQSKSSNEILDAYLLMKENHALVKDLKKSKSENIESFLSQSPPPSPFPNRGSTSSAPGVQQSLTYQTLATVPDLSTLPNSTIAILPTSLPSIHRAYMAETKQNGDPSQQHAPPPTKKSKTRWHFGIRSRSYPLDVMGEIYRALKNLGAEWAKPTEEELWTIRVRWKYDTSAQFECGSAPNLMKMQIQLFQLEPNNYLVSFKFSGWESAHGNAGTDSPQSHRQQDLDEVGSFSAYPFLHLATRLIMELAVNSQSG
B5: Mp65 (protein, UniProt Q59XX2 33-378)
chain: AVHVVTTTNVVVVTIGNGDQTTTFAAPSVAAESSVSVSVNTEPPQNHPTTTQDVASASTYPSSTDGSAASSSAAASSSSQAGSEPSGGVGSGGAKGITYSPYSDNGGCKSESQIASEIAQLSGFDVIRLYGVDCSQVEAVLKAKTSSQKIFAGIFDVSSITSGIESLAEAVKSCGSWDDIYTVSIGNELVNAGSATPSQIKAYVEEGRKALKAAGYTGPVVSVDTFIAVINNPDLCDYSDYMAVNAHAFFDGHVVAENSGAWVLQQIQRVWTACGGKKNVLITETGWPSRGDSNGVAVPSKSNQQAAISSIKSSCGASAILFTAFNDLWKADGPYNAEKYWGIYSN
B6: Sln1 (protein, UniProt Q5A872 1-1373)
chain: MRRLKIGIRPQLIIIVCFASLFSLLILGIVTGIYFSANLKNLRLERLLVISQLKRTQVQQAIQYIAYQVMTVSEVDSLTVPLSNYRAGNNSKAVFSEAQNYLQQYVLTTDSFTAARLYDLDLQVVASSFDNMTLISESAQDVVYPLQPNRSMPPVLGTPSGLYFTGPIANNSDNFNSRYFMGITVPVLSNSSIILSQPSISGYLTIVAAAESIRSALNSTSEDDYQAMAVQPVYGDPQKGIDNLSQNAYNGDNEVIGFKLVFPVENSLLEAGTIYNINSSSSMKTALASNSGTATGVKSFFGKKVAIGFSRISVQDNLNWSIVIVQSNSVFNGPANKLRKITIGVVIGIGAFMCFVTFPLAVWFIRPITKLKEATEAITKYKKEKLNSVNSNSPTSGSGSGSGSGSGSRANSDSSADQSLSLDTGKRNSINSSSFSSSYSTGIRLPARIPRSKKIFKDELTELSEAFNIMTEELDKQYTHLEDRVKLRTKELEASKIQAEAANEAKTVFIANISHELRTPLNGILGMTSIAMEEEDPNVIHDSLKLIHRSGELLLHILTELLTYSKNTLNRSKLEKSNFQILEIVYQVRSIFNKLAHDQRVNFKILVKPNIFRKLIIYGDSNRIIQIVMNLVSNSLKFTPVDGSVSVSFKLLGEYDHERSKKLDYKKVCILNDSSSSTVAVPPPTPPSDTKPNPKPKSTPTPKPDPTRSHLVDHNNRSANTTSPLTPVRKPTNQTKNKSITNNVTKQNMKIRKKKKTNKNLHNNNNNNKNDNSDFLMNRRLSGSHKFNNTNDEELSPTAIEKNIDKYLTSSADSDNISVTTLSTVQYETTIFESQFKSKPLPALPVDAKPQVSGKIDENDVNDEDPSGGSIKDDDSEDTINEKQGISSSPSSSSSSNEKQENSPRSNDSTTVTVTRPRHNMMPSAQDFKSYPTFDKKPEYDSNMSNNEIVKNNRVYRIRNMYQPKVWVIQIEVTDTGPGIEPALQEKVFEPFVQGDQTLSRSYGGTGLGLSICRQLATMMHGTLTLKSTIGKGSTFTLTLPLPQTGEIMVPPEDMAEFCEDEFNPAAKINRKVAFEDGDIDTESQQQENPSSEEDTQGDRNVQSSTSSSPPNSSSTDSALPASDSSDIGGTNKSKTTSHGNNKNINAKKRIITNSSASSTKGTKRHTNNDGGGGVNGNHSDDNKDLTLTIDKPSLFTRGSTGTANSGTTSSHSDKKILYPTPTTTTTTTTTTDHTTVLDDISHLRVLVAEDNSVNQEVISRMLKQEGITNLTMACNGAKAIDFVKESIENNENFDLIFMDVQMPEVDGLKATKMIRKNLQYNKPIIALTAFADESNVKECLNSGMSGFITKPISKTNIKKVLVEFLSNEVVTS
B7: Ywp1 (protein, UniProt Q59Y31 22-511)
chain: QDVACLVDNQQVAVVDLDTGVCPFTIPASLAAFFTFVSLEEYNVQFYYTIVNNVRYNTDIRNAGKVINVPARNLYGAGAVPFFQVHLEKQLEANSTAAIRRRLMGETPIVKRDQIDDFIASIENTEGTALEGSTLEVVDYVPGSSSASPSGSASPSGSESGSGSDSATIRSTTVVSSSSCESSGDSAATATGANGESTVTEQNTVVVTITSCHNDACHATTVPATASIGVTTVHGTETIFTTYCPLSSYETVESTKVITITSCSENKCQETTVEATPSTATTVSEGVVTEYVTYCPVSSVETVASTKVITVVACDEHKCHETTAVATPTEVTTVVEGSTTHYVTYKPTGSGPTQGETYATNAITSEGTVYVPKTTAVTTHGSTFETVAYITVTKATPTKGGEQHQPGSPAGAATSAPGAPAPGASGAHASTANKVTVEAQATPGTLTPENTVAGGVNGEQVAVSAKTTISQTTVAKASGSGKAAISTFEG
B8: Pan1 (protein, UniProt Q5AHB1 1-1396)
chain: MYNPYQQQQQGMGYNPQQQTGYGYNNYQMPQQPQFNQQPMYPQATGFVPQQPNLYGSNFQTSGGSGMAPQQTGFSQQQTMQPQQTGYIQTQPTGFGGTAPIVTENSELKIPSIRLSFISAEDQKKFEHLFRTAVPKGEQSISGDSASGILLRSGLSAVTLAEIWNLSDIDKTGSLLFPEFALSLHLCSMAKRGEPLPGILPEKWLNEVRSFVDQINFTVPDDPSKILANTPFANFAPKKESDWLAPQSTGYLQNQSAPPMTSFQPQVTGFGGQGLVSQATGGVPMPSTTFGNAAGLTAQRTGGGTLIPLQPQQTAGLIPAQKTGPLNPQTTGFNQQSLQQQRTGGLPQQLTGYQGPPQGQGQQLQQQRTGGFPQVQSQPTGGFVPQTSFQQPQLVSQRTGPMQAQPTGSLQAQPTGRPGEWGFVSMPTGGIPGLNAMQQHFLPNNQLPTSNLHSAMDNKLKENVTWAITKQEKQIYDGLFQAWDNQKKGYVDSNVALNVFTKSGLSRSDLESIWTLVDTDDTGKLNKNQFAVAMHLIYRRLNGYDIPLRLPPELIPPADRTLKDTMDSLKNSLKGGVNNKPTKPPKPQSKPDGTRFKNDDNNFGYVSNVRHRRKSTSDESHKSSVKSSSDYDLSIEDMKKLIHEKRILLDALDTEDQANNYSRSSSSMHEKQIIENLKKEIMAVQTKLDERGNDGPSSDERNKLLATLDHLTRDVVPRLISDIHKVNQEISRKKAEVFKLELLKKNPSWNPEDDESQIQGTGPNGEVTDYDRIKYQSRQKLKQRMAALTGKSTGGNSDLDLELKQATEKAQDEASRQSEMIQDIAAGIKTMEDECAAKLSSSVTEDVGHEKWEQGKGISSEVAKFVKELEAFSKEQRRNIAKSQKQEQTREPLAKQQTNASLVSDSGAAKSAYATPEERAAYIKQQAEKRMNERLAKLGITRKSKSTEQKPPVESKSVSNHSPVPDSEVKSVTRNANEVEVQKPKPDSQPVSKNREPAEQPNSKADTNSVGSQNVVSNTNDDTSGDDDDEEYKAILKQKQEMEARERERKLRKQKAKEERLAKIKKEMEEMKKREMEESQDEEEEEAKQVTSVHVSRAQSSNANSNVIPQQETATENVNTVSQPTSTDTAKQSYHPHESNPFSKMNNNTSQNSTVTNTGTNPFFKSTSQETKIDPHKAEAQRASQRGVASSGGWSDSEEEESEEESPNRAGAAKLASLLFGGMPQPPTTSSSSLNNDAEKVSEQEHENAKQVASTPLSNDDNGKTDSGPSGFAGENESSFSQAPPIPVDAPPAPNSIPPPPPPPPQFSNEAPPVPDSIPPPPPPPSVPSTVPALPDSMPPPPPPPPPPAAPNNTSSSQQASGAPNIGALLGQITGGASLRKVETKVSSGATVGRVL

Molecular target: Myc-Cyr1 (C. albicans)
Assay: affinity purification with mass spectrometry; SILAC: extract of GZY809 (Myc-Cyr1, heavy medium) and of control GZY808 (Myc epitope alone, light medium) on anti-Myc affinity gel, 4°C, 4 h; beads combined during washes; lysis buffer 50 mM Tris-HCl pH 7.4, 150 mM KCl, 1% NP-40; yeast growth conditions (GMM, 30°C, no serum); cutoff normalized H/L ratio 1.5:1

Row | Binder | binding
1 | B1 | binds
2 | B2 | binds
3 | B3 | binds
4 | B4 | binds
5 | B5 | binds
6 | B6 | binds
7 | B7 | binds
8 | B8 | binds
